Values from PubChem BioAssay AID1224830 (NIAID, 2016).

- Purpose: 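Host factors that control LPS-induced TNF expression in human macrophages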 (primary screen)
- Cells: human THP-1 monocytic leukaemia cells, TNF dual-luciferase reporter clone, PMA-differentiated to macrophage-like cells
- Reagent: siRNA pool against human genes, 50 nM
- Time to read-out: LPS for 4 h, given about 3 days after siRNA transfection
- Challenge: bacterial LPS (TLR4 ligand), 10 ng/ml
- Detection: 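Ratio of firefly to renilla light, scaled to the plate median and expressed as a robust z-score per replicate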
- Scale: TNF reporter robust z-score: higher = stronger TNF reporter response to LPS
- Rule for the call: 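a well is active when its z-score exceeds 2.8 or falls below -1.5; control wells carry no call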
Shown is an unselected part of about 18,000 reagents. Of all reagents, about 2,900 (16%) got an active call. 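Calls are made per well; low scores hint the gene aids the LPS response, high scores that it dampens it.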 Unmarked entries are inactive. Repeated entries: four replicate wells of each siRNA pool.

gene symbol | TNF reporter robust z-score
VASN (vasorin) | -0.67
VASN (vasorin) | -0.91
VASN (vasorin) | -0.26
VASN (vasorin) | -0.76
CTSL3P (cathepsin L family member 3, pseudogene) | -0.98
CTSL3P (cathepsin L family member 3, pseudogene) | 0.08
CTSL3P (cathepsin L family member 3, pseudogene) | -0.1
CTSL3P (cathepsin L family member 3, pseudogene) | 0.49
FLG2 (filaggrin 2) | 0.04
FLG2 (filaggrin 2) | 0.13
FLG2 (filaggrin 2) | 0.79
FLG2 (filaggrin 2) | -0.41
TNKS2 (tankyrase 2) | 1.43
TNKS2 (tankyrase 2) | 0.73
TNKS2 (tankyrase 2) | 0.88
TNKS2 (tankyrase 2) | 0.41
BMAL2 (basic helix-loop-helix ARNT like 2) | -0.25
BMAL2 (basic helix-loop-helix ARNT like 2) | -0.51
BMAL2 (basic helix-loop-helix ARNT like 2) | 0
BMAL2 (basic helix-loop-helix ARNT like 2) | 0.76
MMS19 (MMS19 cytosolic iron-sulfur assembly component) | 0.46
MMS19 (MMS19 cytosolic iron-sulfur assembly component) | -0.5
MMS19 (MMS19 cytosolic iron-sulfur assembly component) | 0.77
MMS19 (MMS19 cytosolic iron-sulfur assembly component) | -0.34
THAP4 (THAP domain containing 4) | 0.2
THAP4 (THAP domain containing 4) | 1.14
THAP4 (THAP domain containing 4) | 0.95
THAP4 (THAP domain containing 4) | 0.02
DNAH12 (dynein axonemal heavy chain 12) | -0.32
DNAH12 (dynein axonemal heavy chain 12) | 0.2
DNAH12 (dynein axonemal heavy chain 12) | 0.39
DNAH12 (dynein axonemal heavy chain 12) | 0.26
ZBED8 (zinc finger BED-type containing 8) | -0.45
ZBED8 (zinc finger BED-type containing 8) | 0.13
ZBED8 (zinc finger BED-type containing 8) | 0
ZBED8 (zinc finger BED-type containing 8) | 0.4
SMU1 (SMU1 DNA replication regulator and spliceosomal factor) | -0.38
SMU1 (SMU1 DNA replication regulator and spliceosomal factor) | -1.09
SMU1 (SMU1 DNA replication regulator and spliceosomal factor) | -0.69
SMU1 (SMU1 DNA replication regulator and spliceosomal factor) | -0.83
NEU4 (neuraminidase 4) | 0.2
NEU4 (neuraminidase 4) | -0.14
NEU4 (neuraminidase 4) | 0.69
NEU4 (neuraminidase 4) | 1.33
MUC7 (mucin 7, secreted) | 0.78
MUC7 (mucin 7, secreted) | 1.36
MUC7 (mucin 7, secreted) | -0.36
MUC7 (mucin 7, secreted) | 3.08 (active)

An excerpt taken from the entries so far, for reference:
gene symbol | TNF reporter robust z-score
TNKS2 (tankyrase 2) | 0.73
TNKS2 (tankyrase 2) | 0.88
TNKS2 (tankyrase 2) | 0.41
